PubChem BioAssay AID1159578, Peter MacCallum Cancer Centre – 2015
Shown is an unselected part of about 18,000 deposited reagents. About 1,030 of them (5.7%) count as active. 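Inactive calls also include pools with fewer than 3300 nuclei, whose migration was not assessed.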 Raw values are not corrected between plates. Unmarked entries are inactive. Reagent sequences are not shown.

Screen: 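Knock-downs that alter how fast lymphatic endothelial cells migrate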 (primary screen)
System: human lymphatic endothelial cells
Knock-down reagent: siRNA pool against human genes, 40 nM
Timing: 48 h after transfection
Measurement: 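High-content imaging of dye-stained cells in a scratch assay measures filled wound area and nuclei per well; duplicate means given as ratio to mock and robust z-score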
Reading the numbers: migration robust z-score: higher = faster migration into the scratch; migration relative to mock: higher = more scratch area covered than mock; nuclei per well: higher = more cells in the well
Hit rule: 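Migration changed when robust z exceeds 2 or falls below -2 and mean nuclei number is at least 3300; otherwise not called changed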
Calls: active = migration changed; inactive = no migration change, or too few cells

gene symbol,migration robust z-score,migration class with cell-count check,migration relative to mock,"nuclei per well, duplicate mean"
SMYD5,0.16,migration z between -2 and 2; enough cells,0.84,6971
MFSD12,-0.14,migration z between -2 and 2; enough cells,0.85,6280
SCNN1B,-1.48,migration z between -2 and 2; enough cells,0.52,3934
PIK3R5,-4.82,under 3300 nuclei; migration not judged,-0.12,816
TMED6,0.68,migration z between -2 and 2; enough cells,1.06,7192
ADAM11,0.1,migration z between -2 and 2; enough cells,0.82,5804
DLK1,-1.74,migration z between -2 and 2; enough cells,0.43,6148
GRB14,-0.3,migration z between -2 and 2; enough cells,0.8,5314
SHOX2,-1.82,migration z between -2 and 2; enough cells,0.45,6574
POLR2C,-3.94 (active),migration z below -2; enough cells,0.04,4204
TIGD7,0.52,migration z between -2 and 2; enough cells,1.02,5742
SOWAHB,-0.4,migration z between -2 and 2; enough cells,0.78,5550
SMC1B,-0.16,migration z between -2 and 2; enough cells,0.78,7322
KY,-0.86,migration z between -2 and 2; enough cells,0.66,5200
PUF60,1.89,migration z between -2 and 2; enough cells,1.38,5166
CAVIN2,-0.43,migration z between -2 and 2; enough cells,0.78,5278
MESD,-0.01,migration z between -2 and 2; enough cells,0.88,5773
CYP2D6,-0.31,migration z between -2 and 2; enough cells,0.74,4612
RNASET2,1.12,migration z between -2 and 2; enough cells,1.02,5517
ZDHHC7,1.07,migration z between -2 and 2; enough cells,1.17,7548
ODR4,-0.22,migration z between -2 and 2; enough cells,0.82,5474
OR10A3,0.69,migration z between -2 and 2; enough cells,1.06,5298
SEC23A,-0.25,migration z between -2 and 2; enough cells,0.82,4988
VPS53,-0.2,migration z between -2 and 2; enough cells,0.84,5452
ZNG1F,-2.04 (active),migration z below -2; enough cells,0.36,6198
PAQR9,1.81,migration z between -2 and 2; enough cells,1.36,6474
CARD6,1.02,migration z between -2 and 2; enough cells,1.15,6386
TAS2R3,0.74,migration z between -2 and 2; enough cells,1.08,6968
MBNL1,0.62,migration z between -2 and 2; enough cells,1.04,5923
BMAL1,-1.79,migration z between -2 and 2; enough cells,0.46,4794
CRTAC1,-0.62,migration z between -2 and 2; enough cells,0.72,6132
NPFF,-0.02,migration z between -2 and 2; enough cells,0.88,4828
PPP3CB,-1.19,migration z between -2 and 2; enough cells,0.57,4786
ZFYVE16,1.06,migration z between -2 and 2; enough cells,1.17,5274
CACNB2,0.6,migration z between -2 and 2; enough cells,0.92,6096
OR13C3,-0.68,migration z between -2 and 2; enough cells,0.71,5998
SGO2,0.06,migration z between -2 and 2; enough cells,0.9,5653
RBPMS2,0.32,migration z between -2 and 2; enough cells,0.97,6172
SERPINF2,0.48,migration z between -2 and 2; enough cells,1.01,6648
ACTR1B,0.84,migration z between -2 and 2; enough cells,1.1,5125
TGFB3,-1.25,migration z between -2 and 2; enough cells,0.56,4268
TMEM225,0.7,migration z between -2 and 2; enough cells,1.07,6985
SNX21,-0.44,migration z between -2 and 2; enough cells,0.77,5718
SSX2IP,-0.12,migration z between -2 and 2; enough cells,0.86,4572
TPH2,-0.55,migration z between -2 and 2; enough cells,0.7,5269
GLT8D1,0.99,migration z between -2 and 2; enough cells,1,6403
PJA1,1.5,migration z between -2 and 2; enough cells,1.09,5134
BRD3,0.96,migration z between -2 and 2; enough cells,0.99,6486
ZNF383,-0.98,migration z between -2 and 2; enough cells,0.64,4918
INSC,-0.7,migration z between -2 and 2; enough cells,0.7,7307
FAM90A1,-1.59,migration z between -2 and 2; enough cells,0.48,5138
ACAD9,1.71,migration z between -2 and 2; enough cells,1.14,5066
CNOT7,0.42,migration z between -2 and 2; enough cells,0.88,5644
PTK2,-1.46,under 3300 nuclei; migration not judged,0.52,2782
PREX1,-1.34,migration z between -2 and 2; enough cells,0.54,7552
NLRP11,1.12,migration z between -2 and 2; enough cells,1.02,4324
ZNF319,-2.46 (active),migration z below -2; enough cells,0.25,4682
RERGL,1.02,migration z between -2 and 2; enough cells,1.15,5158
KLRC3,-1.6,migration z between -2 and 2; enough cells,0.47,6247
GALT,0.48,migration z between -2 and 2; enough cells,1.01,6585
CFHR4,0.67,migration z between -2 and 2; enough cells,1.05,6942
NDOR1,0.29,migration z between -2 and 2; enough cells,0.86,6996
LRRC8C,-0.77,migration z between -2 and 2; enough cells,0.68,4709
CAVIN4,-0.46,migration z between -2 and 2; enough cells,0.76,6474
CCDC89,0.71,migration z between -2 and 2; enough cells,1.07,5832
C5orf24,1.73,migration z between -2 and 2; enough cells,1.33,6165
MAPK7,-0.94,migration z between -2 and 2; enough cells,0.62,3970
TXNDC12,0.03,migration z between -2 and 2; enough cells,0.81,6022
SGMS2,0.91,migration z between -2 and 2; enough cells,0.98,5338
CNTNAP1,-1.27,migration z between -2 and 2; enough cells,0.56,3751
IRS2,-0.2,migration z between -2 and 2; enough cells,0.84,5456
TGFBI,0.44,migration z between -2 and 2; enough cells,1,5533
VPS72,0.8,migration z between -2 and 2; enough cells,0.96,6950

Not a retest: entries from further up.
gene symbol,migration robust z-score,migration class with cell-count check,migration relative to mock,"nuclei per well, duplicate mean"
BRD3,0.96,migration z between -2 and 2; enough cells,0.99,6486
ZNF383,-0.98,migration z between -2 and 2; enough cells,0.64,4918
INSC,-0.7,migration z between -2 and 2; enough cells,0.7,7307
FAM90A1,-1.59,migration z between -2 and 2; enough cells,0.48,5138
